Reference: US12220465B2, “Compositions and methods for targeted treatment and imaging of cancer or tumors” (Washington University, priority 2018, dated 2025)

System: EPCs
Assay: ICP-MS detection of Titanium and boron in loaded EPCs
Assay type: cell-based

Structure (SMILES) | loading of EPCs confirmed by presence of Titanium or boron (ICP-MS) | cellular content of Titanium in EPCs (after treatment with nontoxic concentration range of Tc, maximum reached) [ng Titanium/mg EPC's]
N[C@@H](Cc1ccc(B(O)O)cc1)C(=O)O [BPA, 4-Borono-L-phenylalanine] | actually loaded with boron | 
[Cl-].[Cl-].[Ti+4].c1cc[cH-]c1.c1cc[cH-]c1 [Titanocene] | actually loaded with Titanocene | 5
